According to article PMC6193743, “Phosphoglucomutase 1 inhibits hepatocellular carcinoma progression by regulating glucose trafficking”:
Results are given in words; binding and its absence hold for the method and conditions named. Binding seen in cells or lysates may run through a third protein. A yes stands for co-enrichment or nearness to the bait. Other partners may have been found.

Sequences of proteins named here, by UniProt entry; tags and fusion partners are left off.
UniProt Q9P0K8: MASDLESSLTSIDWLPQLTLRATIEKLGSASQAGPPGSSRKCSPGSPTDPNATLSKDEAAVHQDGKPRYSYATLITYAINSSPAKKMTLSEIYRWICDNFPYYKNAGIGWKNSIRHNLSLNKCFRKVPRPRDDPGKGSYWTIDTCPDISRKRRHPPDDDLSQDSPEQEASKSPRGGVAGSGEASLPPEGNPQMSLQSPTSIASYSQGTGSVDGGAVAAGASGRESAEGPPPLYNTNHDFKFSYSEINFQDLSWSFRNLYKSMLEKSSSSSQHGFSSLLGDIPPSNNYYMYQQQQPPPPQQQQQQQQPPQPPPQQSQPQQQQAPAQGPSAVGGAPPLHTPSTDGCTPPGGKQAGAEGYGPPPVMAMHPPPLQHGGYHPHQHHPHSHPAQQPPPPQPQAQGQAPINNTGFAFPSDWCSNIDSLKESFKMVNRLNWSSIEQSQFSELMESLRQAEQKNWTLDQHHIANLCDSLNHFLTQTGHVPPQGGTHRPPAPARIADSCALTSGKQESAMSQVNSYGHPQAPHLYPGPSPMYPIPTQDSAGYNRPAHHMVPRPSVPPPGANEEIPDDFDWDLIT
UniProt P62633: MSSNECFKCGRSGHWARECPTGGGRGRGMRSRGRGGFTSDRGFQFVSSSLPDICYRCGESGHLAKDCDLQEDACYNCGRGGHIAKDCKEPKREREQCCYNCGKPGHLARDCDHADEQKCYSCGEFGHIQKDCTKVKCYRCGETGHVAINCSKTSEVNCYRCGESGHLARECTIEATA

Biological target: Flag-FOXJ2 (forkhead box protein J2) (human) (UniProt Q9P0K8)
Assay: affinity purification with mass spectrometry; Flag-FOXJ2 immunoprecipitated with anti-Flag antibody from SK-Hep1 cells stably expressing Flag-FOXJ2 (vector control); complex analysed by LC-MS

cellular nucleic acid-binding protein (CNBP) (from UniProt P62633 1-177)
binding: binds
